The target in assay [1] is T1, Photorhabdus laumondii EagR chaperone (Plu0354), C-terminally Strep-tagged (Photorhabdus laumondii (P. luminescens subsp. laumondii TTO1)) (UniProt Q7N9H9).
T1 sequence: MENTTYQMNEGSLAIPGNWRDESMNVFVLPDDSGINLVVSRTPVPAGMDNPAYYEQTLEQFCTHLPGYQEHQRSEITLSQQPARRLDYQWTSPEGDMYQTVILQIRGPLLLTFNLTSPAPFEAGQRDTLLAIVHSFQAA
The experiment in a line: pull-down; two proteins co-produced in E. coli BL21(DE3) (Strep-tagged EagR with FLAG-tagged Rhs1 or with His6-tagged VgrG); cleared cell extract on Strep-Tactin resin, 1 h at 4 °C, buffer A (50 mM Tris-HCl pH 8.5, 250 mM NaCl, 1 mM TCEP), eluted with 2.5 mM desthiobiotin; Coomassie and immunoblot. (In general: A western blot detects proteins with antibodies after separation by electrophoresis.)

By UniProt entry, the sequences of proteins in these tests, tags left out. Residues count along the entry.
UniProt Q7N9I0, residues 1-289: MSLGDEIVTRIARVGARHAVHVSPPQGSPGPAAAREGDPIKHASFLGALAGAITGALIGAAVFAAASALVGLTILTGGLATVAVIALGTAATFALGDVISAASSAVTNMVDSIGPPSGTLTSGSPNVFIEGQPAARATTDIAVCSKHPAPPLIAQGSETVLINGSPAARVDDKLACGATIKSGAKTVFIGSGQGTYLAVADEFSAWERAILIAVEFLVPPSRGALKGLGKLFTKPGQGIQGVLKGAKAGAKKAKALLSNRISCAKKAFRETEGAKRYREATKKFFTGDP
Rhs1^Shell, ~120-kDa central autocleavage fragment of Rhs1 (Q7N9I0, residues 290-1342): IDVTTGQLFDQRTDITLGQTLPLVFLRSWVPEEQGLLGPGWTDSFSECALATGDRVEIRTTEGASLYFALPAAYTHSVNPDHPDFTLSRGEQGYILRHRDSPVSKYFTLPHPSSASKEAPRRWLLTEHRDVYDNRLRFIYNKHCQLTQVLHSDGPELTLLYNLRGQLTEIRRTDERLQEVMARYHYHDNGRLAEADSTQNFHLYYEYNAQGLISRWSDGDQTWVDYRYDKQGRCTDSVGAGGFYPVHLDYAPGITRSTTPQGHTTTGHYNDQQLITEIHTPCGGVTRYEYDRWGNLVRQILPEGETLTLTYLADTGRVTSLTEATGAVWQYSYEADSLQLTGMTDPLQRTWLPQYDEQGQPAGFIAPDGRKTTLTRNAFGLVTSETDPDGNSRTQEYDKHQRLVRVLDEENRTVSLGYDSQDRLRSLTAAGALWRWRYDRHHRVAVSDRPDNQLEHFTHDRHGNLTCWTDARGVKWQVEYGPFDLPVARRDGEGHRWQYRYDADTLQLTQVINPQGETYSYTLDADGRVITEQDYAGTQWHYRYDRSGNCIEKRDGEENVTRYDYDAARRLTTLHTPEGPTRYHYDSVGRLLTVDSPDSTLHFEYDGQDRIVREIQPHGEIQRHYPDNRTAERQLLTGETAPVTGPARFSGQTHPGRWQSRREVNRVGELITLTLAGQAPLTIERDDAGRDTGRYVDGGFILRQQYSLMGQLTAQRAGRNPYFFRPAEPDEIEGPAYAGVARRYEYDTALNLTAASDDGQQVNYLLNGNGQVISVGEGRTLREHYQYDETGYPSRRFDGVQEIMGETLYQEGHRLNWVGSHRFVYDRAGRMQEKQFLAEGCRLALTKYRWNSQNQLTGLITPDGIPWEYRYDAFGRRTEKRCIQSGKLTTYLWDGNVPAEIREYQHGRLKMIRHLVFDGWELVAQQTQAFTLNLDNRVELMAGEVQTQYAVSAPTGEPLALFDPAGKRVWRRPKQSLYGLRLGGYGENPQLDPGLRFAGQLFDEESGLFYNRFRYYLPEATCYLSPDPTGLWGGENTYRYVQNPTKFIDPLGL

The target in assay [2] is Rhs1^NT, 29-kDa N-terminal autocleavage fragment of Rhs1 (Photorhabdus laumondii (P. luminescens subsp. laumondii TTO1)) (UniProt Q7N9I0). The description is as above.

These are yes or no findings as the source states them, for the method shown. Binding seen in cells or lysates may run through a third protein. Some results given as binding are weak or reduced against the parent protein; the word gives no strength. For some assays here: Sequences can lack the tags named with a protein.

Regarding “Rhs1^NT, 29-kDa N-terminal autocleavage fragment of Rhs1 (from UniProt Q7N9I0 1-289) (domain or fragment)”, in assay [1], the binding result was “binds”. For the substance “Rhs1^Shell, ~120-kDa central autocleavage fragment of Rhs1 (from UniProt Q7N9I0 290-1342) (domain or fragment)”, in assay [2], the binding entry was “binds”.

Values taken from article PMC8636562, “Mounting, structure and autocleavage of a type VI secretion-associated Rhs polymorphic toxin” (Nature Communications, 2021).
